From PubChem BioAssay AID1487 (National Center for Advancing Translational Sciences (NCATS), 2009)
This is one part of the list. These are further read-outs of the screen, such as a control signal, another cell line or another target. No call is given for them. The list favours compounds with an active or inconclusive main result. The note in brackets gives the kind of curve behind each potency; many fits are weak.

Experiment: qHTS Assay for Modulators of Lamin A Splicing
Settings: HeLa LMNA splicing GFP/RFP minigene ratio, 48 h
How it was run: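 S3 HeLa cells stably expressing lamin A-EGFP splicing minigene plus DsRed2, 600 cells/well, 48 h compound exposure at 37C. Laser-scanning cytometry; analysed as GFP (500-530 nm)/RFP (575-640 nm) total intensity ratio; 0.5% DMSO vehicle.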

[1] = measured here: GFP splicing reporter channel
[2] = measured here: RFP viability control channel

## COc1ccc(-c2ccc(-c3noc(C(C)C)n3)c(OC)n2)cc1
[1]
  AC50: 7.08 µM [rising, partial curve]
[2]
  AC50: 17.8 µM [rising, partial curve, poor fit]

## COc1ccc(OC)c(NC(=O)c2[nH]c(C)c(C(C)=O)c2C)c1
[2]
  AC50: 15.8 µM [rising, partial curve]

## CCN(CC)S(=O)(=O)c1cccc(-c2nnc(SCCCC(=O)c3ccc(F)cc3)o2)c1
[2]
  AC50: 12.6 µM [rising, partial curve]

## FC(F)(F)COc1nc(OCC(F)(F)F)nc(N2CCN(c3ccccc3)CC2)n1
[2]
  AC50: 35.5 µM [rising, single point]

## O=C(c1ccc2c(c1)N(Cc1cccc(F)c1)C(=O)c1ccccc1S2)N1CCC2(CC1)OCCO2
[1]
  AC50: 1.78 µM [falling, full curve, poor fit]
[2]
  AC50: 5.62 µM [falling, single point]

## Cc1c(Cl)cccc1NC(c1ccc(F)cc1)c1nnc(-c2ccccc2)o1 (centres undefined)
[2]
  AC50: 0.141 µM [rising, full curve, poor fit]

## Cc1ccc(Cc2cnc(NC(=O)c3ccco3)s2)cc1
[2]
  AC50: 35.5 µM [rising, single point]

## CCCNC(=O)/C=C/c1ccc(C(C)C)cc1
[1]
  AC50: 0.282 µM [falling, full curve, poor fit]
[2]
  AC50: 0.0251 µM [falling, full curve, poor fit]

## CCC1=NN2C(=N)/C(=C\c3cccn3-c3ccc(C)cc3C)C(=O)N=C2S1
[1]
  AC50: 0.708 µM [rising, partial curve, poor fit]

## NC(=O)c1c(C(F)(F)F)cc(-c2ccccc2)nc1NCCO
[2]
  AC50: 25.1 µM [rising, single point]

## COC(=O)[C@H]1Cc2cnoc2C[C@]1(C)C(=O)O
[2]
  AC50: 3.98 µM [rising, single point]

## Cc1ccc(-n2ncc(C(=O)NC3CCCCC3)c2C2CCN(C(=O)OC(C)(C)C)CC2)cc1
[2]
  AC50: 0.1 µM [falling, full curve, poor fit]

## COc1cccc(C2C3=C(CC(C)(C)CC3=O)Nc3n[nH]c(C)c32)c1 (centres undefined)
[2]
  AC50: 1.58 µM [falling, full curve, poor fit]

## C/C=C(/C)C(=O)OC(C)(C)[C@@H]1Cc2c(ccc3ccc(=O)oc23)O1
[2]
  AC50: 22.4 µM [rising, single point]

## CCN(c1ccccc1C)S(=O)(=O)c1nnc(NC(=O)c2ccco2)s1
[1]
  AC50: 6.31 µM [rising, partial curve]

## O=C(Cc1ccc(F)cc1)Nc1cccc2cccnc12
[1]
  AC50: 2.51 µM [rising, single point]
